Experimental data: patent US11766427B2, “Repurposing compounds for the treatment of infections and for modulating the composition of the gut microbiome” (EUROPEAN MOLECULAR BIOLOGY LABORATORY, priority 2018, dated 2023)
At least one compound was matched to its structure with a doubt left.

Tests used:
Details in all cases: screen at 20 μM
[1] = tested on: Clostridium difficile (NT5083); assay: Prestwick Chemical Library growth screen (OD578 growth curves, AUC); type: cell-based
[2] = tested on: Clostridium perfringens (NT5032); type: cell-based
[3] = tested on: Bacteroides fragilis (ET) (NT5033); type: cell-based, Bacteroides fragilis enterotoxigenic

Structure (SMILES) | inhibition of the growth of C. difficile bacteria (in words) [1] | selective inhibition of the growth of C. perfringens bacteria (in words) [2] | selective inhibition of the growth of an enterotoxigenic strain of Bacteroides fragilis (in words) [3]
CC(C)(O)c1ccccc1CC[C@@H](SCC1(CC(=O)O)CC1)c1cccc(/C=C/c2ccc3ccc(Cl)cc3n2)c1 [Montelukast] | effective in inhibiting the growth | – | –
C[C@H]1O[C@H](O[C@H]2[C@H](O)[C@@H](O)[C@@H](O[C@H]3[C@H](O)[C@@H](O)C(O)O[C@@H]3CO)O[C@@H]2CO)[C@H](O)[C@@H](O)[C@@H]1N[C@H]1C=C(CO)[C@@H](O)[C@H](O)[C@H]1O (stereo partly drawn) [Acarbose] | – | selectively inhibiting the growth | selectively inhibiting the growth
